In PubChem BioAssay AID540276 (National Center for Advancing Translational Sciences (NCATS), 2011):
Several values for one entry are separate records, joined by “and”; a condition that tells them apart may be missing. Identical values can stand only once. Among all 300,000 compounds or so, about 5,400 (1.8%) were called active. This list was built around the results that the source calls inconclusive (neither active nor inactive); the mix of calls is not that of the screen. The call rests on the fitted dose curve; tested in HEK293 cells. Potencies of inconclusive entries are doubtful fits and often do not repeat.

Assay: qHTS for inhibitors of binding or entry into cells for Marburg Virus
Conditions: Marburg virus pseudotyped entry inhibition, cell reporter; activity change, negative = inhibition: at 37.8 µM (top of the series) unless noted
On the % scale 0 is the no-effect control and ±100 the full control effect; potency means the concentration at half of the fitted maximal effect.

Structure (SMILES) | Potency | activity change, negative = inhibition
Cc1cc(N)n(-c2ccccc2)n1 | inactive | –
CN=C(c1ccc(C)cc1)n1c(=S)nc(-c2ccc(C)cc2)n(C)c1=S | inactive | –
C=CCNC(=S)NNC(=O)c1ccc(=O)n(Cc2ccc(Cl)cc2Cl)c1 | inconclusive: 1.58 µM [inhibitor, partial curve, poor fit] | –
COc1ccc(O[C@H]2C=C[C@@H](c3ccccc3)O[C@H]2COC(=O)CCC(C)=NOC[C@@H](C)[C@H](OCc2ccccc2)C(C)C)cc1 | inconclusive: 0.266 µM [inhibitor, partial curve, poor fit] | –
COc1ccccc1NS(=O)(=O)c1cc(NC(=O)c2cccnc2)ccc1N1CCCCC1 | inconclusive: 8.91 µM [inhibitor, partial curve, poor fit] | –
COc1ccc(OC(=O)CCCN2C(=O)c3ccccc3C2=O)cc1 | inactive | –
COc1cccc(/C=N/NC(=O)C(=O)NCc2ccco2)c1O | inactive | –
O=C(NCc1ccco1)c1nc2ccccc2s1 | inconclusive: 6.51 µM [activator, single point] | –
O=C(c1ccc(COc2ccccc2Br)o1)N1N=C(C(F)F)CC1(O)C(F)F (stereo unspecified) | active: 7.08 µM | –
COC(=O)c1cnc(Nc2ccc(Cl)cc2)c([N+](=O)[O-])c1 | inactive | –
CCn1cc(C(=O)NCc2ccc3c(c2)OCO3)c(=O)c2cc(F)c(N3CCN(C(=O)c4ccco4)CC3)cc21 | inconclusive: 10 µM [inhibitor, partial curve, poor fit] | –
CCCCCCC/C=C/C1=CC2(C)CC1(C)C(CCCCCCC)CC2=O (stereo unspecified) | inactive | –
COc1ccccc1NC(=O)C1=C(C)Nc2nnnn2C1c1cc(Br)c(O)c(OC)c1 (stereo unspecified) | inactive | –
CC/C(C)=C1\SC(N2CCOCC2)=NC1=O | inconclusive: 12.6 µM [activator, partial curve, poor fit] | –
COC(=O)C1=C(C)N(CCc2ccccc2)C(=O)C1 | inactive | –
COc1ccc(N2C(=O)C(Cl)=C(Oc3cccc(OC)c3)C2=O)cc1 | inconclusive: 35.5 µM [inhibitor, single point] | –
O=c1[nH]c2ccc(Cl)cc2c(-c2ccccc2)c1N1CCN(CCO)CC1 | active: 10.3 µM | –
CC(=O)Nc1ccc(S(=O)(=O)Nc2cc(-c3cn4ccccc4n3)ccc2C)cc1 | inactive | –
CCN(CC)CCN1C(=O)c2ccccc2NC1c1cc(OC)c(OC)c(OC)c1 (stereo unspecified) | inconclusive: 16.4 µM [inhibitor, single point] | –
CC1(C)CC(=O)c2sc(N3CCCCC3)nc2C1 | inactive | –
O=C(Cc1ccc(F)cc1)NCCc1ccccc1 | inconclusive: 0.13 µM [inhibitor, full curve, poor fit] | –
Cc1cccc(C(=O)Nc2c(C(=O)NCc3ccc(Cl)cc3)sc3nc(C)cc(C)c23)c1 | inconclusive: 15.8 µM [inhibitor, partial curve, poor fit] | –
CC1(C)OC(=O)C(=NNc2ccc(C(=O)O)cc2)C(=O)O1 | inactive | –
CCc1nc(N2CCCCC2C(=O)O)c2oc3ccccc3c2n1 (stereo unspecified) | inactive | –

Structure (SMILES) | Potency | activity change, negative = inhibition
O=C(NC(=S)NCc1ccco1)c1ccc([N+](=O)[O-])cc1 | inconclusive: 0.708 µM [inhibitor, single point] | –
COc1ccc(/C=C/c2nc(C#N)c(NCCc3ccccc3)o2)cc1OC | inactive | –
O=[N+]([O-])c1ccc(Cl)cc1CNc1ccc(F)c(F)c1 | inactive | –
O=C(O)C1OC(C(=O)O)C(C(=O)O)C1C(=O)O (stereo unspecified) | inactive | –
Cc1cc(N2CCOCC2)nc(C(C)C)n1 | inconclusive: 25.1 µM [activator, single point] | –
O=C(O)c1ccccc1SCC(=O)N1CCCCC1 | inactive | –
Cc1ccc(NC(=O)Cn2cnc(C(=O)Nc3ccc(C)c(C)c3)n2)cc1C | inactive | –
COc1ccc(NC(=O)c2c(C)oc3ccc(O)c(CN4CCCCCC4)c23)cc1Cl | active: 4.47 µM | –
OC(COc1ccc(OCc2ccccc2)cc1)CN1CCOCC1 (stereo unspecified) | inactive | –
COc1cc2nc(/C=C/c3ccc(N(C)C)cc3)sc2cc1SC | inactive | –
COc1cc2c(C(=O)O)c(C)n(C)c2cc1Br | inactive | –
CC(c1n[nH]c(=S)n1-c1ccc(F)cc1)N1CCCCC1 (stereo unspecified) | inconclusive: 0.562 µM [activator, full curve, poor fit] | –
Nc1nc(CN2CCN(c3cccc(Cl)c3)CC2)nc(N2CCCc3ccccc32)n1 | inconclusive: 35.5 µM [inhibitor, single point] | –
CCOC(=O)C1CCCN(C(=O)Cn2ncn3c(cc4sc(CC)cc43)c2=O)C1 (stereo unspecified) | inactive | –
CC(=O)N1CCc2cc(S(=O)(=O)CCC(=O)Nc3ccc4c(c3)OCCO4)ccc21 | inactive | –
CCCCN(C)CCCNC(=O)c1cc(-c2cccnc2)nc2ccccc12 | inconclusive: 8.91 µM [inhibitor, partial curve, poor fit] | –
COc1ccc(-c2csc3ncnc(N4CCN(c5ccccc5)CC4)c23)cc1 | inconclusive: 35.5 µM [inhibitor, single point] | –
O=C(NCCS(=O)(=O)N1CCCCCC1)c1ccccc1 | inconclusive: 6.31 µM [activator, single point] | –
CCCCNC(=O)COC(=O)c1ccc(N(C)C)cc1 | inconclusive: 2.82 µM [inhibitor, single point] | –
O=C(CNC(=O)Cc1ccccc1)NCC(=O)OCc1ccccc1 | inactive | –
CN(C)[C@@H]1C(=O)C(C(=O)NCN2CCCC2)=C(O)[C@@]2(O)C(=O)C3=C(O)c4c(O)cccc4[C@@](C)(O)C3CC12 (stereo partly specified) | inconclusive: 32.6 µM [inhibitor, single point] | –
O=C1CC23c4ccccc4N4C(=O)CC5OCC=C6CN1C2CC6C5C43 (stereo unspecified) | inconclusive: 3.98 µM [activator, single point] | –
O=C(c1cccc(F)c1)N1CCN(CC2CC3C=CC2C3)CC1 (stereo unspecified) | inconclusive: 15.8 µM [activator, single point] | –
Cc1nc2ccccn2c1C(=O)NNS(=O)(=O)c1ccc(C(C)(C)C)cc1 | inconclusive: 4.47 µM [inhibitor, partial curve, poor fit] | –

Structure (SMILES) | Potency | activity change, negative = inhibition
COc1ccc(NC(=O)Nc2ccccc2C(=O)N2CCCC2)cc1 | inconclusive: 17.8 µM [activator, single point] | –
CCCCCC(=O)Nc1ccc(Cc2ccncc2)cc1 | inactive | –
O=C(CCCC(=O)NN=Cc1ccc(Cl)cc1Cl)NN=Cc1ccc(Cl)cc1Cl | inconclusive: 0.708 µM [activator, full curve, poor fit] | –
COc1ccc(CCNC(=O)c2ccc(Cn3c(=O)c4ccccc4n(Cc4ccc(C)cc4)c3=O)cc2)cc1OC | inconclusive: 35.5 µM [activator, single point] | –
CCOc1ccccc1N=CC1=C(O)CC(c2ccccc2)CC1=O (stereo unspecified) | inconclusive: 0.794 µM [activator, partial curve, poor fit] | –
CCN1CCN(C(=O)CN(c2ccc(F)c(Cl)c2)S(C)(=O)=O)CC1 | inconclusive: 0.0046 µM [inhibitor, full curve, poor fit] | –
CCN(Cc1ccccc1)S(=O)(=O)c1ccc(C(=O)N(CCCN(C)C)c2nc3ccc(F)cc3s2)cc1 | inconclusive: 12.6 µM [inhibitor, partial curve, poor fit] | –
CCOc1cc(S(=O)(=O)N2CC=C(c3ccc(F)cc3)CC2)c(OCC)cc1-n1cnnn1 | inactive and inconclusive: 6.51 µM [inhibitor, full curve] | –
COc1ccc(NC(=O)CSc2nc(-c3ccc(F)cc3)c3cccc(C)c3n2)cc1 | inactive | –
CC1(C)C(=O)N(CCN2CCC(C(=O)c3ccc(F)cc3)CC2)c2ccccc21 | inactive and inconclusive: 501 nM [activator, full curve] | –
CC(=O)Nc1cccc(OCC(=O)NCCC2=CCCCC2)c1 | – | inconclusive: 37.7% [activator] [at 46.1 µM]
O=C(NNS(=O)(=O)c1ccc(Cl)cc1)c1ccc(S(=O)(=O)N2CCCCC2)cc1 | inconclusive: 29.1 µM [inhibitor, single point] | –
CCc1ccc(Oc2ncnc(N)c2[N+](=O)[O-])cc1 | inconclusive: 3.98 µM [inhibitor, full curve, poor fit] | –
O=C(COc1ccc(F)c(Cl)c1)N1CCN(c2ccccn2)CC1 | inconclusive: 31.6 µM [activator, partial curve, poor fit] | –
CCCC(=O)Nc1sc(C)c(-c2ccc(OC)cc2)c1C#N | inconclusive: 35.5 µM [activator, single point] | –
CCCCn1c(SCC(=O)N2CCC(C)CC2)nc2ccsc2c1=O | active: 8.2 µM | –
Cc1ccccc1-c1nc(CS(=O)CC(=O)NCCN2CCN(Cc3ccccc3)CC2)c(C)o1 (stereo unspecified) | inconclusive: 1.03 µM [activator, single point] | –
Cc1ccnc(NC(=O)CCC(=O)N(CC(=O)NCCc2ccccc2)c2ccc(F)cc2)c1 | inactive | –
O=C(NCc1ccc(Cl)c(Cl)c1)c1ccco1 | inactive | –
Cc1c(Cc2ccccc2)c(=O)oc2cc(O)cc(O)c12 | inactive | –
C=CCc1cc(C)ccc1OCCOCCC(C(=O)OCC)C(=O)OCC | inconclusive: 3.16 µM [inhibitor, partial curve, poor fit] | –
CCn1c(SCC(=O)c2cc(C)ccc2C)nc2cc(S(=O)(=O)N3CCOCC3)ccc21 | inconclusive: 11.2 µM [inhibitor, partial curve, poor fit] | –
CC(C)N(Cc1nc(-c2ccc(Cl)cc2)no1)C(=O)c1cccs1 | inconclusive: 29.1 µM [inhibitor, single point] | –
